Results deposited as PubChem BioAssay AID1159584 (Peter MacCallum Cancer Centre, 2016).

Assay: 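Knock-downs that harm CDH1-null cells more than parental MCF10A cells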 (primary screen)
System: human MCF10A breast epithelial cells, parental and CDH1-null
Reagents: siRNA against human genes
Detection: 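ATP luminescence (CellTiter-Glo) viability per line relative to mean mock wells over all plates, and the ratio of CDH1-null to parental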
Reading the numbers: CDH1-null / parental viability ratio: higher = CDH1-null cells survive relatively better than parental; CDH1-null viability vs mock: higher = more viable CDH1-null cells; parental viability vs mock: higher = more viable parental cells
Here is one part, drawn at random, of about 18,000 reagents tested. Not stated in the record: the amount of reagent, the time to read-out.

Target gene	CDH1-null / parental viability ratio	CDH1-null viability vs mock (fraction of mock)	parental viability vs mock (fraction of mock)
RUNX2 (RUNX family transcription factor 2)	1.09	0.48	0.44
CEP72 (centrosomal protein 72)	1.35	0.42	0.31
CHRFAM7A (CHRNA7 (exons 5-10) and FAM7A (exons A-E) fusion)	0.88	0.87	0.99
PHLPP2 (PH domain and leucine rich repeat protein phosphatase 2)	0.79	0.7	0.89
CD2AP (CD2 associated protein)	0.74	0.52	0.7
KRTAP10-8 (keratin associated protein 10-8)	0.99	0.9	0.91
TSC1 (TSC complex subunit 1)	0.96	1	1.04
PAICS	0.99	0.86	0.87
RCE1 (Ras converting CAAX endopeptidase 1)	1.07	0.86	0.8
C2orf42 (chromosome 2 open reading frame 42)	0.89	0.76	0.85
RHBDD3 (rhomboid domain containing 3)	0.77	0.2	0.26
ARHGAP22 (Rho GTPase activating protein 22)	1.12	0.76	0.68
SNAPC2 (small nuclear RNA activating complex polypeptide 2)	0.86	0.5	0.58
NLRP13 (NLR family pyrin domain containing 13)	1.04	1.08	1.04
CRAT (carnitine O-acetyltransferase)	0.96	1.04	1.08
CD81 (CD81 molecule)	1.12	0.76	0.68
TMEM52B (transmembrane protein 52B)	1.14	0.98	0.86
CCDC62 (coiled-coil domain containing 62)	0.84	0.98	1.16
PBX1 (PBX homeobox 1)	0.84	0.57	0.68
CFAP418 (cilia and flagella associated protein 418)	1.14	1.14	1
OR10Z1 (olfactory receptor family 10 subfamily Z member 1)	1.07	0.8	0.75
H4C13 (H4 clustered histone 13)	1.21	0.75	0.62
DNMBP (dynamin binding protein)	1.09	0.83	0.76
HNRNPL (heterogeneous nuclear ribonucleoprotein L)	1.04	0.5	0.48
TMBIM6 (transmembrane BAX inhibitor motif containing 6)	1.02	0.96	0.94
OR2AK2 (olfactory receptor family 2 subfamily AK member 2)	0.97	0.85	0.88
C2CD4A (C2 calcium dependent domain containing 4A)	0.84	0.59	0.7
OVCH1 (ovochymase 1)	1.4	0.84	0.6
